Molecules are shown by their SMILES.

The nature of data set [1]: QPT-OMe-based bipolar static flow battery, charge/discharge cycling. The protocol: (§1) The acetonitrile mixture of QPT-OMe and TBA-TFSI made in Embodiment 1 is used as cathode and anode electrolytes (where the concentrations of QPT-OMe and TBA-TFSI are 0.025 M and 0.5 M, respectively), and a porous membrane Daramic AA-800 is used as a membrane and graphite carbon felt is used as a collector to form a static flow battery.
0.1 mL of electrolyte is injected into both the cathode and anode reservoirs of the battery, and the charging and discharging cycles are tested with a charging current density of 5 mA cm^−1 and a discharging current density of 5 mA cm^−1.

The nature of data set [2]: QPT-OMe bipolar static flow battery, polarity reversal test. The following applies: after 500 cycles. The protocol: as §1
A polarity reversal test is performed by filling 0.1 mL of electrolyte into both the cathode and anode reservoirs of the battery with a charging current density of 5 mA cm^−1 and a discharging current density of 5 mA cm^−1. The polarity of the battery is reversed every 50 cycles, and the current is reversed 4 times before 300 cycles.

Data set [3] is described as follows: QPT-TEG-based bipolar static flow battery, charge/discharge cycling. The note with it: 0.5 M QPT-TEG. The protocol: An acetonitrile mixture of QPT-TEG and TBA-TFSI made in Embodiment 4 is used as cathode and anode electrolytes (where the concentrations of QPT-TEG and TBA-TFSI are 0.5 M and 0.5 M, respectively), and a porous membrane Daramic AA-800 is used as a membrane and graphite carbon is used as a collector to form a static flow battery.
0.1 mL of electrolyte is injected into both the cathode and anode reservoirs of the battery, and the charge and discharge cycles are tested with a charge current density of 5 mA cm^−1 and a discharge current density of 5 mA cm^−1.

`COc1ccc2c(c1)c(=O)c1cccc3c1n2-c1ccccc1S3` [QPT-OMe]: in data set [1] (900 cycles, 5 mA cm^−1), the decay rate entry is “about 0.4 %0 per cycle”. Also, the capacity retention result was “about 63.5%” in data set [1] (after 900 cycles, 5 mA cm^−1) and 56% in data set [2]. The coulombic efficiency result in data set [1] (after 900 cycles, 5 mA cm^−1) is “about 97%”; in data set [2], “approximately 94%”. Further, the energy efficiency in data set [1] (after 900 cycles, 5 mA cm^−1) was around 84%; in data set [2], around 86%. Besides, the “coulombic efficiency (CE)” value in data set [1] (current density 1 mA cm^−2) amounted to 70.0%; in data set [1] (current density 2 mA cm^−2), 82.1%; in data set [1] (current density 5 mA cm^−2), 90.6%; in data set [1] (current density 10 mA cm^−2), 92.9%; in data set [1] (current density 20 mA cm^−2), 92.8%. Also, the utilization rate in data set [1] (current density 1 mA cm^−2) is 77.6%; in data set [1] (current density 2 mA cm^−2), 86.3%; in data set [1] (current density 5 mA cm^−2), 94.3%; in data set [1] (current density 10 mA cm^−2) it was 97.6%; in data set [1] (current density 20 mA cm^−2) it was 65.4%.

As to `COCCOCCOCCOc1ccc2c(c1)c(=O)c1cccc3c1n2-c1ccccc1S3` [QPT-TEG], in data set [3] (5 mA cm^−1), the “utilization of active substance in the first cycle” value amounted to 74.6% and the “voltage plateau during discharge” value was “about 2.3 V”. Also, in data set [3] (after 200 cycles), the discharge capacity remained worked out at 63%.

Values taken from patent US12617804B2, “Conjugation-fused bipolar redox-active molecule, preparation method, and application thereof” (Hangzhou Normal University, priority 2021, dated 2026).
